The results in this text go back to publication PMC10127613 (mBio, 2023).

No signal at the amounts used counts as a negative. Where a protein sequence is shown, tags need not be part of it. Weaker means in comparison with the reference protein, sequence or condition of that experiment.

The data set deals with T1, Clr (Sinorhizobium meliloti) (UniProt Q92SD2).
T1 sequence (looked up): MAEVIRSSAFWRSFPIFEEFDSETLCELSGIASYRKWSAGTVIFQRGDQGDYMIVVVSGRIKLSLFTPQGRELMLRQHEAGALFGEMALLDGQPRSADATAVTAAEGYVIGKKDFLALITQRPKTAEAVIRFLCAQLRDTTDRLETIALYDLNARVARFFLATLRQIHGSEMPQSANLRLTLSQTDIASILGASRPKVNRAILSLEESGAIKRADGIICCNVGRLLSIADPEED
Nature of the data set: EMSA. The following applies: 1 mM cAMP, EMSA: 2 mM HEPES pH 7.0, 30 mM NaCl, 50 mM KCl, 850 ng salmon sperm DNA, 1 ug BSA, 20 ng Cy3-DNA, 3 ug Clr in 10 uL, room temperature, recombinant protein, residues 1-234, protein details: C-terminal His6 (pET36b, NdeI/XhoI), label: 5'-Cy3 on reverse strand. For orientation: A gel shift assay detects complexes by their altered migration in electrophoresis.

For the sequence “AGCGGATAACAATTTCACACAGGAAACAGCATATGACCATGATTACGCCAAGCTCGAAATTAACCCTCACTAAAGGGAACAAAAGCTGGAGCTCTTAAGCTTAGCGCAGTCTCTTGCGCATCCTCCGCAGTCGAAGGGCAACTCCTTGGAAAATCTGGTTTTTTCCGGAAGGTTCCAACTGGCACGCATTGTGCATATTCAGTTCCGTGTCCAGAGGGGACCACAATAAGACAGCGCCCAAGAAGGTCGCGACAAGGGCCGCCGCCGATCGCCTGTGATCCCGGATGTACGGACACGGAGATCGGTTGGCGGCCCTCATTTTCCCACCTGTCGCATTGGCGAAGCGCCCCGGCTCGACTATCTAATACATAACGCCCTAGATCGGGTGCGATTTGGGCCAGCGATTGCAGCAGTCAAAACGTTGCGCGCCAACGAAAGAGCAAGAGGCCGACATGCCGGACGTCACCTCTAGACTGCAGATGGTGAGCAAGGGCGAGGAGCTGTTCA (double strand) [SMc00876]”, the binding result was “binds more weakly”.
“AGCGGATAACAATTTCACACAGGAAACAGCATATGACCATGATTACGCCAAGCTCGAAATTAACCCTCACTAAAGGGAACAAAAGCTGGAGCTCTTAAGCTTCCTTGGCCATGCTGCCTTGTAAAGGGGCCGCGGGGGCTCGGAACACCTACAATCGTTTGAATTGCCGCCGAGCGGCAAGCTCCGACCGGGCATCGCCGACATGGGTTTCCGGCCGGCAGCGATGTGTCCTTTCCGTCACATCCGCAATCTTCCGTTGCGCGTCTTCCTTGTGTCGCAGGGAACATCGGCATCGCGCCCGGCCGGGCAAAGTAGATGCAAATCAGATTTTTAGGCGAAGGGGCATGGCTGAAAACGGATCGCGGCGAGACGCGGGGCGCGGATTCGGGAGGCTTCGTTTCCTTTTCATTCACCATCCTTTTCTATAACTCTCGGAGCACGAGGGCGTGGCGAGAATCTGGCGGCGGCTGCATTCGGCGGCGACGCAATACGGGGACGTTTGTATCTATGAGAATCATCAAGTCGGCAGCGTCTAGACTGCAGATGGTGAGCAAGGGCGAGGAGCTGTTCA (double strand) [fumC / SMc00150]”: the binding result is “binds”.
The same measure for “AGCGGATAACAATTTCACACAGGAAACAGCATATGACCATGATTACGCCAAGCTCGAAATTAACCCTCACTAAAGGGAACAAAAGCTGGAGCTCTTAAGCTTCGCGACCTCGGACTTTCGATAGAGGCGATCCGGGACCTTCTGGCACTGAGCGAGCATCCGGAACGCCCCTGCGGCGAGGCGGACCGCATCGCCACCGAGCATCTTGCCTCCGTGCGGGAAAAGATCGCCCAGCTCAGAAGGCTGGAGCATGAGCTCGAGCGCATCGTCGCTTGCCATGGCGACCACACGATCGGCGATTGCTATGTGATCCGCGCGCTCGCCGACCACTCGCTGTGCGGAAACGAGCATTGAAATTCCTCGTTGACAAATTCCGGGATTTGGACAATCTACGCGCATGATCAAGAACGCGCCCATTTCCAGCGTATATTTTTGGCTGTTCCGATAGGAGCGGCCTGCTGATCATATTCAACAAGGCCGCCATCAGGCGGCTTTTGTTTTTCACGGCACCTGATGGCGGCAGAGAACCATCAGGAGCCGAGAATGTCTAGACTGCAGATGGTGAGCAAGGGCGAGGAGCTGTTCA (double strand) [SMc00108]”: “no binding”; for “AGCGGATAACAATTTCACACAGGAAACAGCATATGACCATGATTACGCCAAGCTCGAAATTAACCCTCACTAAAGGGAACAAAAGCTGGAGCTCTTAAGCTTCGTAACGGTGGCTTCCCGGCCGTTTCCTTTTAAAGTCGTGGTCTTGCCCGTTTCGAGCGGAAACTTCGTGAAGTTGGTCGTCCCGCCTGGAACGCCTGAACCGCCTGGACCGCCTGGACCGCCGGAGCCTCCTCCGCAGCCGGCCAGTGCCAGTGACGCTGCCAACAAAACCGAAAATCTGACTGTAACCGAAGAAGTCATTCCAATGCCCCTCAATGTGTTGCCTATTCCTGTAGTATTACCTCCAATCAAGGAGGCCAAACTGCAATAGAGAATGCCCTTTCCGATCGACGCATGCCGAAATTGCACTTTGGTGTTTCTACCGGGCTAATTTGTTCTCTCTGGAGAGAAACTTAGCTATACGGACCTTACGGGCGGGTCCTGTTGAGGCAATCACCCAAATGGGTGAGTGCTTGATTTTGTTGCCGGGCCTATGGGTTGGCAGACACGGGAGGGGCGAAGTGGACGACGCGGCATCGGAAGAATCTAGACTGCAGATGGTGAGCAAGGGCGAGGAGCTGTTCA (double strand) [SMc02493 / SMc02494]”: “binds more weakly”; for “AGCGGATAACAATTTCACACAGGAAACAGCATATGACCATGATTACGCCAAGCTCGAAATTAACCCTCACTAAAGGGAACAAAAGCTGGAGCTCTTAAGCTTCGTTCGGTGTTTTGTTCTGGCGAACATGATTTGTGTCCTCTGCGGGATTTAAAAGTGGGTCGGATCGGCAGTTTTTTTAGCTCGGGGAGTTTTCCGTCCCGACTCGCTTCTAGAAACAGAAACTCCCGCCGATATCAATGGTAAATAAATACACCGACATTGAGGCATTACTAAGTCACGAGACAAGAAGTTACAGAGAGGACGGAACAAGACGTTTATTTGTTCCAAATTAAATGTGCGGGAAGAATTTGATTCTTCTCGGAATTGGCGGTGCGGTAGCGTAAAAATGGCATCGAAATAATAGTATTTTCACATTTTTATCTTTAGGGAGCAGATGAAAAATCTGGATTGCAACTGTCTTCTGGTTAAAGAACAGGCCCCCATCACTAGACTGCAGATGGTGAGCAAGGGCGAGGAGCTGTTCA (double strand) [SMa1917 / SMa1918]”: “binds more weakly”.
Consider “AGCGGATAACAATTTCACACAGGAAACAGCATATGACCATGATTACGCCAAGCTCGAAATTAACCCTCACTAAAGGGAACAAAAGCTGGAGCTCTTAAGCTTCTCAACAGGGCTGGACAGAAGCTGCAGTCGGCACGAATTCTCGCCGAAGCCGCTGGGAATGGCCATGCTCTGGCAATGGCCAGCTATGCCGATCTCCTTGCCGAGCGCGGCATGGCCGGTACGTCCTCCGGCGATTTGCTGACGGCCCGGCGCTTCGCGCAGGCGACCACGGACGGATTGCAGTGATGAGGGCGGCGGACCGGTCTTCCGCATAGGTCCGACCCGCCCGAAAATGCCGCTTGACGCCTGCGAGCAGGCGCAGGAGCGTGACCCGCGAGACATCAACGCGGGACGCACATGACGAAGCTCTCTAGACTGCAGATGGTGAGCAAGGGCGAGGAGCTGTTCA (double strand) [SMc02179]”, for which the binding result is reported as “binds more weakly”.
For “AGCGGATAACAATTTCACACAGGAAACAGCATATGACCATGATTACGCCAAGCTCGAAATTAACCCTCACTAAAGGGAACAAAAGCTGGAGCTCTTAAGCTTCTGGACTGAAGTCAGTGCCATTCTCGATATCGTTGATTTCGACGACGGCGAGGCCGCAGGTGACCGCGAGATCCTCGATGCTGTAGCCGACCGCTTCACGCGCGGCCTTGACGCGAGCGGCGATGTCGCCGTTGGGCATCGGAGCGGCTTCCTTGTCGCCAATGTTGGAGGGTGAAATAGACATAAATGTCTCCTTCTCTTGGCATGAAAATTCTTACGAATTTTGCTGTTGAGTACGGGTCGACACGCGTCACTGCATGCCCCCTGAACCGCGATTCAAGGGAAAAAACATGCAGCAGATGAAAGTGCTGCAGCGACCTTTGTGCGCGTGAGACGCGCGGTGCTGCAGGACGGCGGTAACGTTTTATGTCATCGTTGTAACATGGACAAGCCGAAATCGCTCTTGTGCACCGGAAGCGGCAGTCGGCTACTGGAATGTCGGTTCTAGACTGCAGATGGTGAGCAAGGGCGAGGAGCTGTTCA (double strand) [exsI / SMb20936]” the value was “binds more weakly”; for “AGCGGATAACAATTTCACACAGGAAACAGCATATGACCATGATTACGCCAAGCTCGAAATTAACCCTCACTAAAGGGAACAAAAGCTGGAGCTCTTAAGCTTGAAGGCTGCAGCAAAGCCATCGGCGATTGTTGCAGAGAGATCGCGAGGTCCGAAGCCAGCCGCCGCTGGACGGCGGACCCCGCGAGTGGCCCCGGAGCGGCGTCCCAGTAGTCCCTTCGGGCAGCGCCGCTCTGGGGCTTCGCCGAACCGCTGGGTCGCGCCGGCAACTCGCCTGCCGTCACGGTATATTTCACTCAGGTAACGTAACGTTACTGTATCCGATTGATAGTCCTACAGTAAAAACAGGAACAAATCACGAAGTACATCGTTCTTCCATCGTATATCAAGGGAGTACGACAGATGAACGCCAAGCTAGACTGCAGATGGTGAGCAAGGGCGAGGAGCTGTTCA (double strand) [SMc00254]”, “no binding”.
On to “AGCGGATAACAATTTCACACAGGAAACAGCATATGACCATGATTACGCCAAGCTCGAAATTAACCCTCACTAAAGGGAACAAAAGCTGGAGCTCTTAAGCTTGCTTACAGGCCAACTGGCTTTTTTCTTTGCAGCGCTCCTGCGGCAAAGCACGTTTCCTGAATTTCCCTGGTTCCTGCGAATCACGCCTGCGAGGTTTGCCGCACCTCACCGGCGTGGCTCGCTTTTGCGCGCGATTCCAAGGGATTAGGGTTCGGATCGTAACCCTTTGTTAAACTTAACAACCTATCAATATTTGATCATCCGCAAGGCTGGTTACGAGCTTCTCCCATTGACGCCCATTTGGTCCCATGTTATCCCATAATGGTACTGCGCAAGGGCCGTGCAATGGCCCGCCATCGCGAAATTCGAGGCTTCCGTCGATGGAAGGATCAGGCGGGCACGCACGTGCCCGGCGGGGGATCTTTGCGCGGTCGTGCGAGTGTATGTGCGGGCCGATGATCGTGGCCCGTCAATCGGGGGCGGCCGTTTCGCGTCATGAACCGCTTCTTGTCACATGTTACGAACCGGATCGATGCCTCTAGACTGCAGATGGTGAGCAAGGGCGAGGAGCTGTTCA (double strand) [SMc01857]”, for which the binding result is recorded as “no binding”.
